Laboratory results published in patent US12398141B2 (SHANGHAI SYNERGY PHARMACEUTICAL SCIENCES CO., LTD, priority 2019, dated 2025).

What was measured:
[1] = tested on: TF-1 cell; assay: TF-1 cell proliferation test; type: cell-based; details: Homo sapiens, 72 h
Procedure: Inhibiting test of the compounds of the invention on proliferation of Blast T cell and TF-1 cell (American type culture collection) was carried out by the following method. The tested compounds […], and […] were dissolved in dimethyl sulfoxide from 0.0006 to 10 μM in quadruplicate dilutions. A culture medium included RPMI 1640 culture medium (Grand Turk Island Biotechnology CompanyTM-11875093), 10% fetal calf serum (Aosibina, 0986180) and 1% penicillin-streptomycin (Grand Turk Island Biotechnology Company, 1902422). […] The above test compounds at various concentrations formulated in 1.1 or dimethyl sulfoxide control were added and incubated for 72 h, and then Celltiter Glo® reagent (Promega, G7571) was added. The luminescence value was read on Microplate Reader (Molecular Device). […] The IC50 values of the corresponding compounds were then obtained by fitting by using the XLFit fitting tool in excel.

[2] = tested on: Blast T cell; assay: Cell proliferation test of IL-2 stimulated Blast T cell; type: cell-based; details: Homo sapiens; IL-2 stimulated Blast T cell proliferation, 72 hours
Procedure: Inhibiting test of the compounds of the invention on proliferation of Blast T cell and TF-1 cell (American type culture collection) was carried out by the following method. The tested compounds […], and […] were dissolved in dimethyl sulfoxide from 0.0006 to 10 μM in quadruplicate dilutions. A culture medium included RPMI 1640 culture medium (Grand Turk Island Biotechnology CompanyTM, 11875093), 10% fetal calf serum (Aosibina, 0986180), 55 μM 2-mercaptoethanol and 1% penicillin-streptomycin (Grand Turk Island Biotechnology Company, 1902422). NuncTM Edge 2.0 96-well flat bottom (Cat. No. 167425). Healthy human PBMC cells (drawn blood from healthy human) were isolated, and CD4^+T cells were isolated using the EasySepTM human CD4 T cell isolation kit (Stemcell, 19052). 10 μg/ml polyhydroxyalkanoate was added to stimulate and obtain cells with a density of 2×10^6/mL, which were incubated for 3 days. The cells were washed with phosphate buffer for three times and IL-2 (100 u/ml) was added to stimulate for 1 week. Cells were suspended using the culture medium and seeded at 5×10^4 cell/well density into 96-well plates, and incubated for 1 h with the prepared test compound or DMSO control at various concentrations from 0.0006 to 10 μM diluted by 4-fold volume. […] The luminescence value was read on SpectraMax L (Molecular Device). […]

C[C@@H]1CCN(C(=O)CC#N)C[C@@H]1N(C)c1ncnc2[nH]ccc12 [Tofacitinib, reference compound]
IC50 [1]: 0.047 µM | IC50 [2]: 0.065 µM
